Assay [1] addresses T1, Flag-tagged AC9 (adenylyl cyclase type 9) (UniProt O60503).
T1 sequence: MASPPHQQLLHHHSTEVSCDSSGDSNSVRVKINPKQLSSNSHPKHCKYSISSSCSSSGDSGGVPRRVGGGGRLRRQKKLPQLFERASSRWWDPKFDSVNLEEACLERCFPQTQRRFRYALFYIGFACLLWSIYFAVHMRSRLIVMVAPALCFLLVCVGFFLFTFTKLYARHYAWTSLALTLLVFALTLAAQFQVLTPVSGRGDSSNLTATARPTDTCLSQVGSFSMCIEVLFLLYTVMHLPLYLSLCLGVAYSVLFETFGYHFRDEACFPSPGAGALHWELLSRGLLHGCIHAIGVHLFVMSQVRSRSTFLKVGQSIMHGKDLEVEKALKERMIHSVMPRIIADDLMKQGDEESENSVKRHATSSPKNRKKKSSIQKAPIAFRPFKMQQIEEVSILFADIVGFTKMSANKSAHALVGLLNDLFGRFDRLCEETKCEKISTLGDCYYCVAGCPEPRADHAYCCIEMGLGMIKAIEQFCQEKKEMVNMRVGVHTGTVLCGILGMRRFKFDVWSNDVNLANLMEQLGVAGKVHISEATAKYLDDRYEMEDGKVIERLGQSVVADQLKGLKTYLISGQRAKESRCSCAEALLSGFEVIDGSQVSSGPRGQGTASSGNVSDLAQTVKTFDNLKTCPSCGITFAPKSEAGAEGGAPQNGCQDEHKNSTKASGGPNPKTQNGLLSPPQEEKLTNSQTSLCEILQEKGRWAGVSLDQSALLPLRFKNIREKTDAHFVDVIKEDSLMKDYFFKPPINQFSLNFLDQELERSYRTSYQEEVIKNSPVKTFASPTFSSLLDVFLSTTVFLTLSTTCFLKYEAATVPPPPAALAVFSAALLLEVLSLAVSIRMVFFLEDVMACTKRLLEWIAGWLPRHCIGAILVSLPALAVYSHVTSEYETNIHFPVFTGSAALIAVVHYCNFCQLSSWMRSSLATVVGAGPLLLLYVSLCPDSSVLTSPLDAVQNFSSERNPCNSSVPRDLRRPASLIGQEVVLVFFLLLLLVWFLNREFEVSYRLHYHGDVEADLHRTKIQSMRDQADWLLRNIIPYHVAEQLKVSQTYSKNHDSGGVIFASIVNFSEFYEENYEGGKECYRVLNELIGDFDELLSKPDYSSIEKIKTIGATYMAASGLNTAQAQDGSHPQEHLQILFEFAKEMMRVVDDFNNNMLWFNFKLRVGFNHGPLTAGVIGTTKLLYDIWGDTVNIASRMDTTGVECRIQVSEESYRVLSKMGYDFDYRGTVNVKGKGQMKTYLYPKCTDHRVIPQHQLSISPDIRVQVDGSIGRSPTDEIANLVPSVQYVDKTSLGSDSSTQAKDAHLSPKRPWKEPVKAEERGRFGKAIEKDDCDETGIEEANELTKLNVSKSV
Description: co-IP.

Assay [2] deals with POPDC1-Myc (Popeye domain-containing protein 1, Myc-tagged) (mouse) (UniProt Q9ES83). As to the kind of experiment: co-IP.
Assay [3] has as its target T2, POPDC1-VN / POPDC1-VC (mouse POPDC1 with a half of Venus for BiFC) (mouse) (UniProt Q9ES83).
T2 sequence: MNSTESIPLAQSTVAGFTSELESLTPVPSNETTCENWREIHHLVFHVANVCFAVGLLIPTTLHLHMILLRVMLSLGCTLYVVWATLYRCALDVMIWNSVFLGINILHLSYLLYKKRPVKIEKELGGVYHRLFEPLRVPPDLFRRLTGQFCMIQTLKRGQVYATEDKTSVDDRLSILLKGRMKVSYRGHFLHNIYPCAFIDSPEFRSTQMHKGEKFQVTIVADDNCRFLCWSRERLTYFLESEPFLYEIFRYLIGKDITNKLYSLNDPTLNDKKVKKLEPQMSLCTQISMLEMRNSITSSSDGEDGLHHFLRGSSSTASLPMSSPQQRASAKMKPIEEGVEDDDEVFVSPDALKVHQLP
Description: split reporter.

No constants are given. Whether binding was seen depends on the method and setting. In cells and extracts the contact can be indirect. Some binding calls cover weakened binding; strength is not graded here. For some of these results: Sequences can lack the tags named with a protein.

B1: POPDC2-Myc (protein, UniProt Q9ES82 1-367)
chain: MSANGSSVAQLLWQPPVCRSWKPDVEGAVYHLANCFLLMGFMAGSGVYGCFYLFGILGPGYLCCVLWGWFDACGLDIVLWNVLLTVACLLQLAQLVYRVRVNTLPEEFNLLYRTLCLPLQVPLQVYKEIVHCCHEQVLTLATEQTYAVEGETPINRLSLLLSGRVRVSQDGQFLHYIFPYQFMDSPEWESLHPSEEGTFQVTLTAETECSYISWPRKNLYLLLNRERYISRLFSALLGYDISEKLYTLNDKLFAKFGLRFDIRLPSLYHVLSPSASDGEPESEKDDEEALEAAVSPAQARPICIVPTPPCSAPPATTNFPVPLPRARMPRMPRPDSGNLASRRPLQNSSQVMSRSQAPLAPIHTPEL
Regarding B1, in assay [1], the binding entry is reported as “binds”.

B2: GFP-tagged AC9 (enzyme, UniProt O60503 1-1353)
chain: MASPPHQQLLHHHSTEVSCDSSGDSNSVRVKINPKQLSSNSHPKHCKYSISSSCSSSGDSGGVPRRVGGGGRLRRQKKLPQLFERASSRWWDPKFDSVNLEEACLERCFPQTQRRFRYALFYIGFACLLWSIYFAVHMRSRLIVMVAPALCFLLVCVGFFLFTFTKLYARHYAWTSLALTLLVFALTLAAQFQVLTPVSGRGDSSNLTATARPTDTCLSQVGSFSMCIEVLFLLYTVMHLPLYLSLCLGVAYSVLFETFGYHFRDEACFPSPGAGALHWELLSRGLLHGCIHAIGVHLFVMSQVRSRSTFLKVGQSIMHGKDLEVEKALKERMIHSVMPRIIADDLMKQGDEESENSVKRHATSSPKNRKKKSSIQKAPIAFRPFKMQQIEEVSILFADIVGFTKMSANKSAHALVGLLNDLFGRFDRLCEETKCEKISTLGDCYYCVAGCPEPRADHAYCCIEMGLGMIKAIEQFCQEKKEMVNMRVGVHTGTVLCGILGMRRFKFDVWSNDVNLANLMEQLGVAGKVHISEATAKYLDDRYEMEDGKVIERLGQSVVADQLKGLKTYLISGQRAKESRCSCAEALLSGFEVIDGSQVSSGPRGQGTASSGNVSDLAQTVKTFDNLKTCPSCGITFAPKSEAGAEGGAPQNGCQDEHKNSTKASGGPNPKTQNGLLSPPQEEKLTNSQTSLCEILQEKGRWAGVSLDQSALLPLRFKNIREKTDAHFVDVIKEDSLMKDYFFKPPINQFSLNFLDQELERSYRTSYQEEVIKNSPVKTFASPTFSSLLDVFLSTTVFLTLSTTCFLKYEAATVPPPPAALAVFSAALLLEVLSLAVSIRMVFFLEDVMACTKRLLEWIAGWLPRHCIGAILVSLPALAVYSHVTSEYETNIHFPVFTGSAALIAVVHYCNFCQLSSWMRSSLATVVGAGPLLLLYVSLCPDSSVLTSPLDAVQNFSSERNPCNSSVPRDLRRPASLIGQEVVLVFFLLLLLVWFLNREFEVSYRLHYHGDVEADLHRTKIQSMRDQADWLLRNIIPYHVAEQLKVSQTYSKNHDSGGVIFASIVNFSEFYEENYEGGKECYRVLNELIGDFDELLSKPDYSSIEKIKTIGATYMAASGLNTAQAQDGSHPQEHLQILFEFAKEMMRVVDDFNNNMLWFNFKLRVGFNHGPLTAGVIGTTKLLYDIWGDTVNIASRMDTTGVECRIQVSEESYRVLSKMGYDFDYRGTVNVKGKGQMKTYLYPKCTDHRVIPQHQLSISPDIRVQVDGSIGRSPTDEIANLVPSVQYVDKTSLGSDSSTQAKDAHLSPKRPWKEPVKAEERGRFGKAIEKDDCDETGIEEANELTKLNVSKSV
Turning to B2, in assay [2], the binding result was “binds”.

B3: POPDC1-Myc (Popeye domain-containing protein 1, Myc-tagged) (protein, UniProt Q9ES83 1-358)
chain: MNSTESIPLAQSTVAGFTSELESLTPVPSNETTCENWREIHHLVFHVANVCFAVGLLIPTTLHLHMILLRVMLSLGCTLYVVWATLYRCALDVMIWNSVFLGINILHLSYLLYKKRPVKIEKELGGVYHRLFEPLRVPPDLFRRLTGQFCMIQTLKRGQVYATEDKTSVDDRLSILLKGRMKVSYRGHFLHNIYPCAFIDSPEFRSTQMHKGEKFQVTIVADDNCRFLCWSRERLTYFLESEPFLYEIFRYLIGKDITNKLYSLNDPTLNDKKVKKLEPQMSLCTQISMLEMRNSITSSSDGEDGLHHFLRGSSSTASLPMSSPQQRASAKMKPIEEGVEDDDEVFVSPDALKVHQLP
In the case of B3, in assay [1], the binding result is on record as “binds”.

B4: POPDC1-VN / POPDC1-VC (mouse POPDC1 with a half of Venus for BiFC) (protein, UniProt Q9ES83 1-358)
chain: MNSTESIPLAQSTVAGFTSELESLTPVPSNETTCENWREIHHLVFHVANVCFAVGLLIPTTLHLHMILLRVMLSLGCTLYVVWATLYRCALDVMIWNSVFLGINILHLSYLLYKKRPVKIEKELGGVYHRLFEPLRVPPDLFRRLTGQFCMIQTLKRGQVYATEDKTSVDDRLSILLKGRMKVSYRGHFLHNIYPCAFIDSPEFRSTQMHKGEKFQVTIVADDNCRFLCWSRERLTYFLESEPFLYEIFRYLIGKDITNKLYSLNDPTLNDKKVKKLEPQMSLCTQISMLEMRNSITSSSDGEDGLHHFLRGSSSTASLPMSSPQQRASAKMKPIEEGVEDDDEVFVSPDALKVHQLP
Take B4: the binding entry in assay [3] is recorded as “binds”.

Values taken from paper doi:10.1101/2021.12.21.473719.
